Measured values published in patent publication US10702487B2, “Pharmaceutical composition for prevention of diet induced obesity” (FRIMLINE PRIVATE LIMITED, priority 2017, dated 2020).

What was measured:
[1] = test system: High fat diet induced obesity model in rat; assay: High fat diet induced obesity model in rat: serum biochemistry; type: in vivo, Male Wistar Rats; conditions: HFD-fed rats, 12 weeks, p.o.
Protocol: (§1) Screening anti-obesity effect of synergistic combination or composition/formulation comprising OEA and other natural ingredients using High fat diet induced obesity model in rat. […] To maintain appropriate conditions, temperature and relative humidity were recorded three times daily. During complete experiment, animals were supplied with the standard certified rat pellet feed (manufactured by VRK Nutritional Solutions, Pune) and drinking water treated by the reverse osmosis ad libitum. […] In order to evaluate the anti-obesity effect, forty-eight (48) male rats were screened and divided into eight groups. For a comparative analysis, the groups were divided as follows: normal control, disease control, treatment groups with individual component, reference standard drug and test composition/formulation of the present invention. […] The animals under consideration were examined for a study period of 12 weeks. Animals in group (G1) were given normal pellet diet, wherein the other groups were on high fat diet. After completion of study for 12 weeks, each group was analyzed in terms of the body weight and other evaluating parameters such as serum biochemistry (triglyceride, total cholesterol and low density lipoprotein cholesterol (LDL), analysis of liver homogenates and histopathology of liver. Obesity is essentially due to an excessive accumulation of the fatty tissues which leads to many diseases, not limited to insulin resistance, diabetes, fatty liver disease, coronary artery disease, hypertension and polycystic ovary syndrome. In obese conditions, the level of total cholesterol, triglyceride and LDL-cholesterol reaches beyond the normal ranges in human beings. Similarly, high fat diet model in rat is universally accepted model to test the efficacy of the drug for the treatment of obesity. In the above experimental procedure, obesity was induced by administration of a high fat diet (HFD) for the period of 12 weeks. For comparison, the normal control group animals were given a normal pellet diet, whereas the remaining groups were fed with the HFD. As a routine experiment, all animals' body weights were observed on weekly basis. Further, various serum biochemistry parameters such as Triglyceride, total cholesterol and LDL-cholesterol were analyzed at the end of the 12-week treatment period. In this regard, at the end of study period, all animals were euthanized and the liver was isolated. The liver homogenate of each individual animal was prepared and subjected for determination of the level of total cholesterol and Triglyceride. Further, part of the liver was used for histopathological investigation purpose.

[2] = test system: High fat diet induced obesity model in rat; assay: High fat diet induced obesity model in rat: analysis of liver homogenates; type: in vivo, Male Wistar Rats; conditions: liver homogenate, HFD-fed rats, 12 weeks, p.o.
Protocol: as §1

CC(C)(CO)[C@@H](O)C(=O)NCCC(=O)NCCSSCCNC(=O)CCNC(=O)[C@H](O)C(C)(C)CO [Pantethine]
LDL ([1]; mean): 49.17 mg/dL
Total Cholesterol ([1]; mean): 135.54 mg/dL
Triglyceride ([1]; mean): 110.13 mg/dL
LDL % Decrease ([1]; versus disease control): 15.19%
Total Cholesterol % Decrease ([1]; versus disease control): 7.95%
Triglyceride % Decrease ([1]; versus disease control): 10.30%
Total Cholesterol ([2]; mean): 82.41 mg/dL
Triglyceride ([2]; mean): 75.22 mg/dL
Total Cholesterol % Decrease ([2]; versus disease control): 8.68%
Triglyceride % Decrease ([2]; versus disease control): 9.38%
